Assay results as given in paper PMC9019091.
No constants are given. Whether binding was seen depends on the method and setting. In cells and extracts the contact can be indirect. Some binding calls cover weakened binding; strength is not graded here.

Amino acid sequences for entries named in this document (tags omitted).
UniProt P78527: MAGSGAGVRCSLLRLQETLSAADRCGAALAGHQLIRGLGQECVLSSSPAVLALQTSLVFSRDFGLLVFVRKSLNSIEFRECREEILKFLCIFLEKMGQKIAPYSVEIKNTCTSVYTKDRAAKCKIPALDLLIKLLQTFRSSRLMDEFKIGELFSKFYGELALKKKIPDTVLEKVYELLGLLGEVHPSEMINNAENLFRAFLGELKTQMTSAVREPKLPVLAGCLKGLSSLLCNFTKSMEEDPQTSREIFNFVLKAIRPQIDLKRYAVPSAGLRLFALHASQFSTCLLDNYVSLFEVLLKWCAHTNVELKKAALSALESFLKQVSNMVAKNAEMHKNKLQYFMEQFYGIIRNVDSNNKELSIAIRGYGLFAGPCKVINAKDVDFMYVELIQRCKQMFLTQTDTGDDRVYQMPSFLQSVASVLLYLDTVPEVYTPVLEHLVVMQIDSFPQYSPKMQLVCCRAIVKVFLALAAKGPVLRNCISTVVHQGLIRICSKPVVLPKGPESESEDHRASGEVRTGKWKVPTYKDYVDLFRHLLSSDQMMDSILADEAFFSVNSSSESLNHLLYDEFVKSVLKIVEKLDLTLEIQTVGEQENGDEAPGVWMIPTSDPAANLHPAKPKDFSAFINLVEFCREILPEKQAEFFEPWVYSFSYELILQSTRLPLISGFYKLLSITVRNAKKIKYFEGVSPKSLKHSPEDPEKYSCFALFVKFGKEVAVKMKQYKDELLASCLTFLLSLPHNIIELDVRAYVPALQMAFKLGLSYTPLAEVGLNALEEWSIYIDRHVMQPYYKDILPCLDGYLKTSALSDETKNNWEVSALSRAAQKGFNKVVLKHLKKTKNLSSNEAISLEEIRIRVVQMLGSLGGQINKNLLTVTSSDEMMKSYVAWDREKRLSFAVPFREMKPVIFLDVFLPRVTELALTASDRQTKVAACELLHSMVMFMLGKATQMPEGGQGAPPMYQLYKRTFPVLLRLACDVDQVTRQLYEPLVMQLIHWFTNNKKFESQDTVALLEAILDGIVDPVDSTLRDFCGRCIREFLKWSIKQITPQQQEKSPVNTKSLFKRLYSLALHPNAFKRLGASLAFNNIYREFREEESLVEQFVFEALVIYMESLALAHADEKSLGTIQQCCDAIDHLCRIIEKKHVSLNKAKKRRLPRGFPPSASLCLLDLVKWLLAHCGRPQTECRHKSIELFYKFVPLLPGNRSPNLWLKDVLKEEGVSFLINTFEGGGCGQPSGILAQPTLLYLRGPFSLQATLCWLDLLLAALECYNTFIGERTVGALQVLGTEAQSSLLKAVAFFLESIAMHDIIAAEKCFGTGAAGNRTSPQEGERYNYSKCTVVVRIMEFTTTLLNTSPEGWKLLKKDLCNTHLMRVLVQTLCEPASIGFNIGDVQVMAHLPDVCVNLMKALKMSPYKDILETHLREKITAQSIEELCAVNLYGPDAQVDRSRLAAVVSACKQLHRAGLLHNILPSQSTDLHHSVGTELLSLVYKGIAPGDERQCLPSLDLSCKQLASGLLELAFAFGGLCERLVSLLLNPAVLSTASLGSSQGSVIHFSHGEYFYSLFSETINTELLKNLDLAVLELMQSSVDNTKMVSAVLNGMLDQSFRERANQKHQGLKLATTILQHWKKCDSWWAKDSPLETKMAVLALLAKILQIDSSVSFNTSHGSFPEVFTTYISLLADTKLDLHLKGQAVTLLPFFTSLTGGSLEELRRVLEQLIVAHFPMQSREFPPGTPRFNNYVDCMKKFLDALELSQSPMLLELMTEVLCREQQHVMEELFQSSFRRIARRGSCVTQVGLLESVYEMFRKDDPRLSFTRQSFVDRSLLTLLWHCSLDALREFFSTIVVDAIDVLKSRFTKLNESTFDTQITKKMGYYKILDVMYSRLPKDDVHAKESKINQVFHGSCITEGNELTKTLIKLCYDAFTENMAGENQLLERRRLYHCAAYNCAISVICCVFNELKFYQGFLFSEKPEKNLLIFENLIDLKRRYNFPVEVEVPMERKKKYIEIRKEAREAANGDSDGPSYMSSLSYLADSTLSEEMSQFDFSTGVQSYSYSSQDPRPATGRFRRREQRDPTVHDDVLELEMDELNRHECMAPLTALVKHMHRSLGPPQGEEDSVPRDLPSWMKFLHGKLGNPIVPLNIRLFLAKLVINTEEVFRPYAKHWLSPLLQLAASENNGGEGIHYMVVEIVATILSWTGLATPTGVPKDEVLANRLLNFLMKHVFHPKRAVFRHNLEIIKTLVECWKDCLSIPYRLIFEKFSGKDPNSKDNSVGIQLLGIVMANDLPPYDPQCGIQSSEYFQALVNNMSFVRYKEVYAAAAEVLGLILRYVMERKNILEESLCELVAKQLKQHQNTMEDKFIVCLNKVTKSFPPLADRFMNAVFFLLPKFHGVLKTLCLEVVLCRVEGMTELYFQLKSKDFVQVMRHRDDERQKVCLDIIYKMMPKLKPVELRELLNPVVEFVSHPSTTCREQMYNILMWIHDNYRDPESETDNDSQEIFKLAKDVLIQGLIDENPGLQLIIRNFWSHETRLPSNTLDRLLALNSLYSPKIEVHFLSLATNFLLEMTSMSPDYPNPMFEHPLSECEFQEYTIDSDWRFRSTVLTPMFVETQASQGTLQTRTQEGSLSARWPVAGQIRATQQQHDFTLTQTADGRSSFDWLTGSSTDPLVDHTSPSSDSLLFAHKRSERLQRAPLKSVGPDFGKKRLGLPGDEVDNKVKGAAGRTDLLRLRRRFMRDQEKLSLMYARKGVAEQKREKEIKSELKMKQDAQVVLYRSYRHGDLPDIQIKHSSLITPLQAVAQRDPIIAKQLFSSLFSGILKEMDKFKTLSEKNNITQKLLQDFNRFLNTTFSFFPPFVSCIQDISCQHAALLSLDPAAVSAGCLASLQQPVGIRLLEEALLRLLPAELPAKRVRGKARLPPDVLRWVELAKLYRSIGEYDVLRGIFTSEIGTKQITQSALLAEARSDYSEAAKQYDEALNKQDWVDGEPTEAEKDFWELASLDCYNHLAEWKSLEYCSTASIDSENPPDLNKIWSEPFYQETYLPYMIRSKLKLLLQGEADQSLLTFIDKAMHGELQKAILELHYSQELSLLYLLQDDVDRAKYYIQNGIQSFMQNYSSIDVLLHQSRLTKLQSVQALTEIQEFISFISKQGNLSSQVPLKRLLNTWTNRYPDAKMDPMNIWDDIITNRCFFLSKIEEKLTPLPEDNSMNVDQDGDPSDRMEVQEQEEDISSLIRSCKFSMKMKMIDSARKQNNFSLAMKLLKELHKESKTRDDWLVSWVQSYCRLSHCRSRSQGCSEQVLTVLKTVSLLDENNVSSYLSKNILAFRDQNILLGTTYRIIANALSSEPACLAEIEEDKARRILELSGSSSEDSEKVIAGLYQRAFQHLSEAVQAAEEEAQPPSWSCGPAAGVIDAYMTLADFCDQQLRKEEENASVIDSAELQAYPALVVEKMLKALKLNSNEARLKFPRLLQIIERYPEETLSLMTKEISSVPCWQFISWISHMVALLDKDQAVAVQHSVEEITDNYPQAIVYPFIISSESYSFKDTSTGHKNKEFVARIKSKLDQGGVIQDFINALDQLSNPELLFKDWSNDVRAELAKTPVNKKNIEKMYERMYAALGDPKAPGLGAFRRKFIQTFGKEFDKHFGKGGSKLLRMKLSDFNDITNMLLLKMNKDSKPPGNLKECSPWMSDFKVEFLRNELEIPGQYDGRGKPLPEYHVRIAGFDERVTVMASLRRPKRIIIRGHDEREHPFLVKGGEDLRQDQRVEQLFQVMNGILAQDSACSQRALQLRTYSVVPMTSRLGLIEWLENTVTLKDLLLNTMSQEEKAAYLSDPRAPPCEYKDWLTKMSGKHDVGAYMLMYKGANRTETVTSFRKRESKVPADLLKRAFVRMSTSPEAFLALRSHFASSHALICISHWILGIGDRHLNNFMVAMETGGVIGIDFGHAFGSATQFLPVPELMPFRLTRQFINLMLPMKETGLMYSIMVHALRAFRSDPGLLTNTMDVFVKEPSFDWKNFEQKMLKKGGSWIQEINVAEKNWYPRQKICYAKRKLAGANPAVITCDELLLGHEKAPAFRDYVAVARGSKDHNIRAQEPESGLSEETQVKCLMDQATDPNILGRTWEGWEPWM

Columns and labels:
[1] = molecular target: T1, MARS, exogenous (UniProt P56192); test: co-IP; exogenous DNA-PKcs and exogenous MARS in ACHN and 769-P cells (Supplementary Fig. 9a)
T1 sequence: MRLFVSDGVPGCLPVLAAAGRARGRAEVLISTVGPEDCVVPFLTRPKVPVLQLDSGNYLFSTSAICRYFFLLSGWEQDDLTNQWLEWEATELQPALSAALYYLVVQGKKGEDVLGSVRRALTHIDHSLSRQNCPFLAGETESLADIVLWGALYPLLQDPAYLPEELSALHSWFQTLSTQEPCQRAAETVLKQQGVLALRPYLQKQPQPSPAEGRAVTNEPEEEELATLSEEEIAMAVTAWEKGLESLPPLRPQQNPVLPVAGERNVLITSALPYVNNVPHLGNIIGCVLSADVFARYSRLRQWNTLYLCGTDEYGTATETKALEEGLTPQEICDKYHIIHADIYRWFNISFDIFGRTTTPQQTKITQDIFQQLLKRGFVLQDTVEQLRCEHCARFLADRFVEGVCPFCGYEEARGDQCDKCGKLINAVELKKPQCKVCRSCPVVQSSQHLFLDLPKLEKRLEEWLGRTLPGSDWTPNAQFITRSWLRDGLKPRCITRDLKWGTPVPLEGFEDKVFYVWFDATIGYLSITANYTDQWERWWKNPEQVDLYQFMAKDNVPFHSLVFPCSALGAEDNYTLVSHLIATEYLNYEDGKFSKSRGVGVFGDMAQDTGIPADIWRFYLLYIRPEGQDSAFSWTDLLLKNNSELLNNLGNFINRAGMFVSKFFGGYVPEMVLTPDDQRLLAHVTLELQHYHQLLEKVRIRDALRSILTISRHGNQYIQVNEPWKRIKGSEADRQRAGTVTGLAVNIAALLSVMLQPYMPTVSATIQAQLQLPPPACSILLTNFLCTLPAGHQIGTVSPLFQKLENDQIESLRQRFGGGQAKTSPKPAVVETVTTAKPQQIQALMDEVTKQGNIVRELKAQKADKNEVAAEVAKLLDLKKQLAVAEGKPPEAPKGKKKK

[2] = molecular target: T2, methionyl-tRNA synthetase (MARS), endogenous (human (endogenous in 786-O)) (UniProt P56192); test: co-IP; endogenous DNA-PKcs and endogenous MARS in 786-O cells (Fig. 7d); n = 3 biological repeats
T2 sequence: T1 sequence

| binding [1] | binding [2] | Substance |
| --- | --- | --- |
| binds |  | DNA-PKcs, wild type, exogenous (pcDNA3.1-Flag) (from UniProt P78527 1-4128) |
|  | binds | DNA-dependent protein kinase catalytic subunit (DNA-PKcs), endogenous (from UniProt P78527 1-4128) |
